Results are given in words; binding and its absence hold for the method and conditions named. Binding seen in cells or lysates may run through a third protein. A result given as binding can be weak or reduced; the word gives no strength.
B1: LHCSR3 (protein, UniProt P0DO18 46-259)
chain: EDVFAYTKNLPGVTAPFEGVFDPAGFLATASIKDVRRWRESEITHGRVAMLAALGFVVGEQLQDFPLFFNWDGRVSGPAIYHFQQIGQGFWEPLLIAIGVAESYRVAVGWATPTGTGFNSLKDDYEPGDLGFDPLGLKPTDPEELKVMQTKELNNGRLAMIAIAAFVAQELVEQTEIFEHLALRFEKEAILELDDIERDLGLPVTPLPDNLKSL
B2: PSAK (protein, UniProt P14225 27-113)
chain: DGFIGSSTNLIMVASTTATLAAARFGLAPTVKKNTTAGLKLVDSKNSAGVISNDPAGFTIVDVLAMGAAGHGLGVGIVLGLKGIGAL

How the values were obtained:
[1] = target: LHCA3 (Chlamydomonas reinhardtii (endogenous in thylakoids)); experiment: cross-linking; DSS (DSS-H12 and DSS-D12, equimolar) added to isolated thylakoid membranes of wild-type 4a+ (1.5 mg chl/mL, 5 mM HEPES-KOH pH 7.5), 30 min at room temperature in the dark, quenched with Tris-HCl; then α-DDM solubilization, sucrose density gradient, SDS-PAGE, in-gel digestion …; crosslinked peptides found with XiSearch, MaxQuant, Merox, Mass Spec Studio, FDR 0.05
[2] = target: LHCA5 (Chlamydomonas reinhardtii (endogenous in thylakoids)); experiment: as above

Binder | binding [1] | binding [2]
B1 | binds | binds
B2 | binds | 

Source: article PMC11207971
